Measured values: the supplement of paper PMC10849652
This is one part of the list.

Amino acid sequences for entries named in this document (tags omitted). A change or cut given only in a name is not applied to a line headed by its entry.
UniProt Q12904: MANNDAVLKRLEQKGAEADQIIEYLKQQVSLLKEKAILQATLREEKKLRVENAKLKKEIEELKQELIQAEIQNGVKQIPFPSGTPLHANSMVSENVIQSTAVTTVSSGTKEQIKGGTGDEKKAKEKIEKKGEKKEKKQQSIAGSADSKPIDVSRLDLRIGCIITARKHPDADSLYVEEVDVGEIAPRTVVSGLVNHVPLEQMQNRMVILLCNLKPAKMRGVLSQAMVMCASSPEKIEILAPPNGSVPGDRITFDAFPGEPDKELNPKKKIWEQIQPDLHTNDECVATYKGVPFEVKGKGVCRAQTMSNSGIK
UniProt Q8N142: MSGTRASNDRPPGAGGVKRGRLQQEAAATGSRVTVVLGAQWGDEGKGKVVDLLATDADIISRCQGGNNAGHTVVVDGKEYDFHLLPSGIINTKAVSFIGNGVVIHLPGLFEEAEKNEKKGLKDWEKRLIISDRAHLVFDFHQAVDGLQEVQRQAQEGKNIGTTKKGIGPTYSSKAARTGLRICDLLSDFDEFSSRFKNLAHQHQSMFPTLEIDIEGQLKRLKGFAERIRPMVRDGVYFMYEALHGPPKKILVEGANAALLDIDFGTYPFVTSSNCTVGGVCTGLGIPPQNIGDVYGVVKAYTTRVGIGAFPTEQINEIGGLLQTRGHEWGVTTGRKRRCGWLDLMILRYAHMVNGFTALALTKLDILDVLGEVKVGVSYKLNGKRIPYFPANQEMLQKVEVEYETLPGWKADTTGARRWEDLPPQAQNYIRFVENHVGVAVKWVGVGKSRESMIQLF
UniProt O75891: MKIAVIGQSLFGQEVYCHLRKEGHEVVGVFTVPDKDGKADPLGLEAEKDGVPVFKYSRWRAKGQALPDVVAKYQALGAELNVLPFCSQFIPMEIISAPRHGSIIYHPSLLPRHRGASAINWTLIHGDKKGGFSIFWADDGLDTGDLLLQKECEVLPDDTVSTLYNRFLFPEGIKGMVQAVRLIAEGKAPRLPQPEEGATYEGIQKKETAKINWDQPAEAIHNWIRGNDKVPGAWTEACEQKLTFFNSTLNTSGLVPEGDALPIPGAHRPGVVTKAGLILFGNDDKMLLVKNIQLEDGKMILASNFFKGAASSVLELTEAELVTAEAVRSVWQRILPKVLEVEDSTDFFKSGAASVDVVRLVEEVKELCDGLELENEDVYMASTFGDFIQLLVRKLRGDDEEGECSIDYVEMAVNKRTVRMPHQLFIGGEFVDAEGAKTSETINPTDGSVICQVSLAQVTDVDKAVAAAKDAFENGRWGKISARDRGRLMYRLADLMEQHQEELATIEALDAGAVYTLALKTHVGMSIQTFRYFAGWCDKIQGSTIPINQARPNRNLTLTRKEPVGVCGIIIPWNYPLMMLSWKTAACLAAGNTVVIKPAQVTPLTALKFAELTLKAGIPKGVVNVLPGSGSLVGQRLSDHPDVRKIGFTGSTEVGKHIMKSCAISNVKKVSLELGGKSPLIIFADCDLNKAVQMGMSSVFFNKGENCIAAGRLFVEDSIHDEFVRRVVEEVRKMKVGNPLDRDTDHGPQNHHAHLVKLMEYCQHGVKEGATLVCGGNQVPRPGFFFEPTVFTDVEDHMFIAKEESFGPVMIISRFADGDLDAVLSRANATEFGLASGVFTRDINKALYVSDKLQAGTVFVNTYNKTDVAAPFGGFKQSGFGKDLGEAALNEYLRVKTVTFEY
UniProt P30566: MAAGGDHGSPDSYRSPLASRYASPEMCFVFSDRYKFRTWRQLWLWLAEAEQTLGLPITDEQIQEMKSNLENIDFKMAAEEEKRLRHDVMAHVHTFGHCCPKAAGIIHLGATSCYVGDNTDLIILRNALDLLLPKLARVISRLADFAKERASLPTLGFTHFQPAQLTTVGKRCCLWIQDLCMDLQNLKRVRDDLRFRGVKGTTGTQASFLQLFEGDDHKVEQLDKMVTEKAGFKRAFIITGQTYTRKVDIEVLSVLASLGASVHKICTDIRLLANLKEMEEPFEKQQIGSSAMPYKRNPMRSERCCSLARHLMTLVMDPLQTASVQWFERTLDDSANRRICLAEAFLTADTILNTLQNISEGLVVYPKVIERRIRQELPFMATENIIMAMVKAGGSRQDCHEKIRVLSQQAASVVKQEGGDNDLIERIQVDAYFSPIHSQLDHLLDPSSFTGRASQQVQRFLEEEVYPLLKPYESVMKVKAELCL
UniProt Q96BJ3: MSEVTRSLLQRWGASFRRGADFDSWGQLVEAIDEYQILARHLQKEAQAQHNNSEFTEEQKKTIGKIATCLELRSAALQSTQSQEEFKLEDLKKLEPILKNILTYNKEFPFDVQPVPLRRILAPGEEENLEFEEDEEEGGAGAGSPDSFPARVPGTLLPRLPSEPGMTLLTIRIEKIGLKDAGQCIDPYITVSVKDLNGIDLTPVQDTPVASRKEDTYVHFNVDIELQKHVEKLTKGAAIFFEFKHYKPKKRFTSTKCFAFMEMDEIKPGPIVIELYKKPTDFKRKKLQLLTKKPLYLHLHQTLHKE
UniProt Q9BV57: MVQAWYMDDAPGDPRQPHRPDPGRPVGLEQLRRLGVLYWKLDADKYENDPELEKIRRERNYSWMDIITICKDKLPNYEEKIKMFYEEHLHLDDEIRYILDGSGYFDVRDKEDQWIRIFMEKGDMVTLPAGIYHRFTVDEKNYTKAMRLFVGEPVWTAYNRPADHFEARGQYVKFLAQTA
UniProt P51649: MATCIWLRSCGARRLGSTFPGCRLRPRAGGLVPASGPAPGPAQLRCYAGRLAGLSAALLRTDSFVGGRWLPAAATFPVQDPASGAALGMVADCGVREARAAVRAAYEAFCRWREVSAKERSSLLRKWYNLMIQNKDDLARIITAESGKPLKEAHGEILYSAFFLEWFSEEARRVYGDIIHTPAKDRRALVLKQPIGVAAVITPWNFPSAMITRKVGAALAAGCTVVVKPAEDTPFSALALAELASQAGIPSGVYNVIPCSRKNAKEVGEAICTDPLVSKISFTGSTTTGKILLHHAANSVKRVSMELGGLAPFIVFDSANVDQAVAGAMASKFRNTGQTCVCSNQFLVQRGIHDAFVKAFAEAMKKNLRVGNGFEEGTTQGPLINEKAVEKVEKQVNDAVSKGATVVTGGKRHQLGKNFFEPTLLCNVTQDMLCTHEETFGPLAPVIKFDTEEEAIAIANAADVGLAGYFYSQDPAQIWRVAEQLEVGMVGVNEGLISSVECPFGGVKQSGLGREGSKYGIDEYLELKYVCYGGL
UniProt Q53H12: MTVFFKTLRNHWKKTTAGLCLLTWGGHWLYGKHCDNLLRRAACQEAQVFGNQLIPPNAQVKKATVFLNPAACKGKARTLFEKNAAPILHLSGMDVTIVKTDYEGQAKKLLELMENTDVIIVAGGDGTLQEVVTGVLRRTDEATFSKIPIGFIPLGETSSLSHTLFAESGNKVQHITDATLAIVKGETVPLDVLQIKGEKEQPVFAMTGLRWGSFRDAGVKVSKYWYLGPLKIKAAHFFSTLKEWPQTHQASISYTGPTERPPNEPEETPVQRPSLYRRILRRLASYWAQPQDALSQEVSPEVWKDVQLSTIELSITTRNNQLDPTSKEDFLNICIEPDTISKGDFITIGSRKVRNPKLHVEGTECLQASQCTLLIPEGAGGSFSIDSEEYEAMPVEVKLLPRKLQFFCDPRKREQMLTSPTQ
UniProt Q9H553: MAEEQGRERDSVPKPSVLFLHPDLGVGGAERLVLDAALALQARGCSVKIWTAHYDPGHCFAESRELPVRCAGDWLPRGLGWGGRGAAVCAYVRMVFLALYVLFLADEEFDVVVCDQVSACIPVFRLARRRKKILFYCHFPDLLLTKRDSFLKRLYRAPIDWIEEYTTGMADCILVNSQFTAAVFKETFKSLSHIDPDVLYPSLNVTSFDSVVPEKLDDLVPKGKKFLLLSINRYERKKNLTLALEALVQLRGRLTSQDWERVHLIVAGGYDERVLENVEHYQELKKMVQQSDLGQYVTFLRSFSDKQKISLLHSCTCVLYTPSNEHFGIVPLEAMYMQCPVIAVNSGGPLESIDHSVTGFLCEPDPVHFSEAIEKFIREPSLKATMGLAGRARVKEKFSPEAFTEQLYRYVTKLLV
UniProt Q3SY69: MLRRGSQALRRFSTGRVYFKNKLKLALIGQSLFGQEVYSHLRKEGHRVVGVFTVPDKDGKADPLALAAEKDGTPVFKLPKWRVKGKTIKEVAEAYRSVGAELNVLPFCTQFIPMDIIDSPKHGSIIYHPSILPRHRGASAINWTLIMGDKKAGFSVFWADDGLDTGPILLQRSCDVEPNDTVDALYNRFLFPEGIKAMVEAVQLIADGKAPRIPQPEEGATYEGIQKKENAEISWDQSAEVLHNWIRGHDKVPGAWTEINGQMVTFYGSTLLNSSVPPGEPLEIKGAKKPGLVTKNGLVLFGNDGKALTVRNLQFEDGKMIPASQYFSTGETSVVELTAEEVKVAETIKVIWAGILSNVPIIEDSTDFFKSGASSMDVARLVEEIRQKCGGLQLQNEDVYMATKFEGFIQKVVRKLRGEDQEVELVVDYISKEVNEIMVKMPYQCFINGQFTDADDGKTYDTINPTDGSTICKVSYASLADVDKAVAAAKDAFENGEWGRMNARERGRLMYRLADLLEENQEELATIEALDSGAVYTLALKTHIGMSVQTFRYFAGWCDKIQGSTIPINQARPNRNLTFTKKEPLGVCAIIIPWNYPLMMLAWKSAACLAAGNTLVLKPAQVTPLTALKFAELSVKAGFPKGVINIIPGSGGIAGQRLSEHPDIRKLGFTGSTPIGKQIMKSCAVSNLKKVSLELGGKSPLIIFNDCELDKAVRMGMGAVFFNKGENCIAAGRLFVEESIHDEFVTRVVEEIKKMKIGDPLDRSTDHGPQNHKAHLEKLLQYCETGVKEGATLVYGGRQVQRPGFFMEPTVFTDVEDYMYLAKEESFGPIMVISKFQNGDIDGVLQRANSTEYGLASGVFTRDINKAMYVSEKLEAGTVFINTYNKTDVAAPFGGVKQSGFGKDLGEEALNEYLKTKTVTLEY
UniProt P30520: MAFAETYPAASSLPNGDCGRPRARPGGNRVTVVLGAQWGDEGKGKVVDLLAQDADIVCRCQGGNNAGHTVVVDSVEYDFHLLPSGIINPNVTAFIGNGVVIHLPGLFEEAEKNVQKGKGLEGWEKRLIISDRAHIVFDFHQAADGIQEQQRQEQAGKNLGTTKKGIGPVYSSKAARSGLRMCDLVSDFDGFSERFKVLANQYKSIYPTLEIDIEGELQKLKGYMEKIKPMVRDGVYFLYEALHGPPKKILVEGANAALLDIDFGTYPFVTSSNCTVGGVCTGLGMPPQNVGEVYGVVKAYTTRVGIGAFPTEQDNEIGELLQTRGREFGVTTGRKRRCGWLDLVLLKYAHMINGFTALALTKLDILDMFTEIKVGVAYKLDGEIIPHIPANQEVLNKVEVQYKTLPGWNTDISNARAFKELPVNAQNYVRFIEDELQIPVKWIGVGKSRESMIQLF
UniProt O95831, whole entry, looked up: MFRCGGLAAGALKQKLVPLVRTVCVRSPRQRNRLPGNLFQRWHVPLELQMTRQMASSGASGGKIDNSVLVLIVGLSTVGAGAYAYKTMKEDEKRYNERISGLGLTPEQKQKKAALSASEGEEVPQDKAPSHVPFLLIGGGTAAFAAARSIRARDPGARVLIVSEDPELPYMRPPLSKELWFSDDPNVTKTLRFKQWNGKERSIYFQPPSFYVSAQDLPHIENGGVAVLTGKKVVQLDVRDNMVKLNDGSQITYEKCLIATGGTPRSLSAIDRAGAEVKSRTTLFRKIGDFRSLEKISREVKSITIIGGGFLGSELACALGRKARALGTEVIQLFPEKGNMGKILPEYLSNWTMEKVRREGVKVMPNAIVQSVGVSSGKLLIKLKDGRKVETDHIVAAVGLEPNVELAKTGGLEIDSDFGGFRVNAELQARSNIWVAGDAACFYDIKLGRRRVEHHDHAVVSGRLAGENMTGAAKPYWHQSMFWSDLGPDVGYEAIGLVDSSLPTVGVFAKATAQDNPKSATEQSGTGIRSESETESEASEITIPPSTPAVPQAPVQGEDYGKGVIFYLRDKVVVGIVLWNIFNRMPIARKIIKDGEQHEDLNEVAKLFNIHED
UniProt Q96Q83: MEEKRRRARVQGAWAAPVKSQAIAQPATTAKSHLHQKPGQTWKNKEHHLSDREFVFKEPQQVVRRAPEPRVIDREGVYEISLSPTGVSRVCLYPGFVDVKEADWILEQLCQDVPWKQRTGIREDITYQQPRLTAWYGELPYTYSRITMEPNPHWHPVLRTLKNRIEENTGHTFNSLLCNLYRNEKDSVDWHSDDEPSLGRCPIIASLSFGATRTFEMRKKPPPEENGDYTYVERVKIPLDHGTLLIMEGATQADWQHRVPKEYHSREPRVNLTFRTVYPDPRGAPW
UniProt Q96SZ5, whole entry, looked up: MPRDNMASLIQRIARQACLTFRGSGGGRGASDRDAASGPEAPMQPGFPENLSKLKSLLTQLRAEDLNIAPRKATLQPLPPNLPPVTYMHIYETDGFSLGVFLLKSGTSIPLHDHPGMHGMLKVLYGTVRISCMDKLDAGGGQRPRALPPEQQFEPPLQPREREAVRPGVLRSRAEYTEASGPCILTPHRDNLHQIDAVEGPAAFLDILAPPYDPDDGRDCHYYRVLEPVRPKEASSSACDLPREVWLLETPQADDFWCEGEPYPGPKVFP

Tests used:
Test in all cases: log2 fold change, soluble protein after heating vs DMSO (PISA); higher = thermal stabilisation; K562 cells, 10 uM, 30 min; active = over 0.2 and 3.5 SD of the protein, either way, in both replicates (recomputed)
[1] = compound: CS(=O)(=O)c1ccc(-c2cnc(N)c(C(=O)Nc3ccccc3)n2)cc1
Summary of the method: (§1)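 Soluble protein was defined as the supernatant after 21,000xg for 90 min. It came from K562 cells at 2×10^6 cells/mL given 10 μM compound for 30 min, heated in aliquots for 3 min across 48°C-58°C, pooled, and extracted in PBS with 0.5% NP-40 at 4°C, and was quantified by TMTpro 16plex LC-MS/MS with equalised channel sums. Thermal stability against control samples, from duplicates, is reported as log2 fold change.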

[2] = compound: C[C@@H](Oc1cc(-c2cnn(C3CCNCC3)c2)cnc1N)c1c(Cl)ccc(F)c1Cl [crizotinib]
Summary of the method: as §1

[3] = compound: C[C@@H]1COCCN1C2=NC(=NC(=C2)C3(CC3)S(=O)(=O)C)C4=C5C=CNC5=CC=C4
Summary of the method: as §1

[4] = compound: C[C@H](C1=CC=C(C=C1)C(=O)NC2=C3C=CNC3=NC=C2)N
Summary of the method: as §1

[5] = compound: C[C@H](Nc1ncnc2nc[nH]c12)c1cc2cccc(Cl)c2c(=O)n1-c1ccccc1 [duvelisib]
Summary of the method: as §1

[6] = compound: Cc1cc(Nc2cc(CN3CCOCC3)c3nc(C)c(Cc4ccc(Cl)cc4F)n3n2)n[nH]1 [gandotinib]
Summary of the method: as §1

[7] = compound: Cc1cc(Nc2cc(N3CCN(C)CC3)nc(Sc3ccc(NC(=O)C4CC4)cc3)n2)n[nH]1 [tozasertib]
Summary of the method: as §1

[8] = compound: Cc1cc(SCc2sc(-c3ccc(C(F)(F)F)cc3)nc2C)ccc1OCC(=O)O
Summary of the method: as §1

[9] = compound: Cc1ccc(-n2nc(C(C)(C)C)cc2NC(=O)Nc2ccc(OCCN3CCOCC3)c3ccccc23)cc1 [doramapimod]
Summary of the method: as §1

[10] = compound: Cc1ccc(C(=O)N(CCCN)[C@@H](c2nc3cc(Cl)ccc3c(=O)n2Cc2ccccc2)C(C)C)cc1 [ispinesib]
Summary of the method: as §1

Measured: log2 fold change

AGO3 (UniProt Q9H9G7)
inactive: [1] -0.023 | [2] 0.031 | [3] -0.135 | [4] 0.279 | [5] -0.093 | [6] 0.193 | [7] 0.057 | [8] 0.181 | [9] 0.01 | [10] -0.033

ALDH1A2 (UniProt O94788)
inactive: [1] 0.092 | [2] 0.026 | [3] 0.014 | [4] -0.058 | [5] 0.023 | [6] -0.033 | [7] -0.022 | [8] -0.014 | [9] -0.014 | [10] 0.071

AFTPH isoform 9 (UniProt Q6ULP2)
inactive: [1] 0.016 | [2] -0.011 | [3] 0.032 | [4] -0.066 | [5] -0.051 | [6] 0.019 | [7] 0.009 | [8] -0.011 | [9] 0.022 | [10] 0.01

ALG13 (UniProt Q9NP73)
inactive: [1] -0.014 | [2] 0.035 | [3] 0.174 | [4] -0.023 | [5] 0.05 | [6] -0.081 | [7] 0.033 | [8] 0.053 | [9] 0.006 | [10] 0.042

AIMP1 isoform 2 (UniProt Q12904)
inactive: [1] -0.004 | [2] -0.165 | [3] -0.419 | [4] 0.498 | [5] -0.1 | [6] 0.136 | [7] 0.027 | [8] 0.093 | [9] 0.329 | [10] -0.302

ALYREF (UniProt Q86V81)
inactive: [1] -0.029 | [2] 0.068 | [3] -0.376 | [4] 0.318 | [5] -0.095 | [6] 0.272 | [7] 0.037 | [8] -0.043 | [9] 0.174 | [10] -0.031

ADSS1 (UniProt Q8N142)
inactive: [1] 0.077 | [2] 0.011 | [3] 0.048 | [4] 0.012 | [5] -0.002 | [6] 0.016 | [7] -0.057 | [8] 0.032 | [9] 0.022 | [10] 0.005

AMDHD2 isoform 3 (UniProt Q9Y303)
inactive: [1] 0.062 | [2] -0.03 | [3] 0.036 | [4] 0.001 | [5] 0.059 | [6] -0.009 | [7] -0.069 | [8] 0.019 | [9] 0.042 | [10] -0.027

ALDH1L1 isoform 3 (UniProt O75891)
inactive: [1] -0.037

ADSL (UniProt P30566)
inactive: [1] 0.005 | [2] 0.037 | [3] -0.014 | [4] -0.053 | [5] 0.012 | [6] 0.019 | [7] -0.011 | [8] -0.04 | [9] -0.044 | [10] 0.04

AKAP1 (UniProt Q92667)
inactive: [1] 0.007 | [2] -0.024 | [3] -0.08 | [4] 0.266 | [5] -0.028 | [6] -0.002 | [7] 0.023 | [8] 0.038 | [9] 0.082 | [10] -0.075

ALG6 (UniProt Q9Y672)
inactive: [1] 0.053 | [2] -0.206 | [3] 0.068 | [4] -0.052 | [5] 0.022 | [6] -0.079 | [7] -0.139 | [8] -0.045 | [9] 0.03

ADPGK (UniProt Q9BRR6)
inactive: [1] 0.028 | [2] 0.098 | [3] 0.137 | [4] 0.029 | [5] 0.057 | [6] -0.049 | [7] -0.045 | [8] 0.057 | [9] -0.01 | [10] 0.053

ALAD isoform 2 (UniProt P13716)
inactive: [1] -0.029 | [2] 0.035 | [3] 0.035 | [4] -0.057 | [5] 0.003 | [6] 0.013 | [7] -0.077 | [8] -0.064 | [9] -0.077 | [10] 0.123

AIDA (UniProt Q96BJ3)
inactive: [1] -0.051 | [2] 0.106 | [3] -0.004 | [4] -0.142 | [5] 0.042 | [6] -0.054 | [7] 0.021 | [8] 0.063 | [9] 0.011 | [10] -0.01

AK3 (UniProt Q9UIJ7)
inactive: [1] 0.029 | [2] 0.055 | [3] 0.057 | [4] -0.033 | [5] 0.04 | [6] -0.046 | [7] 0.007 | [8] -0.032 | [9] -0.021 | [10] 0.038

AGFG1 isoform 4 (UniProt P52594)
inactive: [1] -0.022 | [2] 0.066 | [3] 0.117 | [4] -0.082 | [5] 0.013 | [6] -0.016 | [7] 0.061 | [8] 0.003 | [9] -0.009 | [10] 0.051

ADI1 (UniProt Q9BV57)
inactive: [1] 0.012 | [2] 0.08 | [3] 0.005 | [4] 0.022 | [5] -0.038 | [6] 0.038 | [7] 0.092 | [8] -0.13 | [9] 0.078 | [10] 0.074

ALKBH6 isoform 2 (UniProt Q3KRA9)
inactive: [1] 0.019 | [2] 0.027 | [3] -0.008 | [4] -0.041 | [5] -0.009 | [6] -0.008 | [7] 0.018 | [8] -0.059 | [9] 0.065 | [10] 0.043

ADPRM (UniProt Q3LIE5)
inactive: [1] -0.083

ALDH5A1 isoform 2 (UniProt P51649)
inactive: [1] 0.016 | [2] 0.052 | [3] 0.071 | [4] -0.107 | [5] 0.039 | [6] 0 | [7] -0.009 | [8] -0.031 | [9] -0.07 | [10] 0.009

ALDH1A1 (UniProt P00352)
inactive: [1] 0.154 | [2] 0.092 | [3] 0.033 | [4] -0.06 | [5] 0.006 | [6] 0.019 | [7] -0.015 | [8] 0.028 | [9] -0.022 | [10] 0.067

AGK (UniProt Q53H12)
inactive: [1] 0.027 | [2] -0.013 | [3] 0.08 | [4] -0.011 | [5] 0.008 | [6] 0.004 | [7] -0.034 | [8] -0.032 | [9] -0.005 | [10] -0.126

ALDOC (UniProt P09972)
inactive: [1] -0.002 | [2] 0.003 | [3] 0.024 | [4] -0.093 | [5] -0.021 | [6] 0.05 | [7] -0.021 | [8] -0.029 | [9] -0.022 | [10] 0.008

ALG2 (UniProt Q9H553)
inactive: [1] 0.05 | [2] 0.01 | [3] 0.071 | [4] -0.01 | [5] 0.027 | [6] 0.016 | [7] -0.047 | [8] 0.011 | [9] -0.019 | [10] 0.011

2 consecutive entries already listed, quoted:
ALDOC (UniProt P09972)
inactive: [1] -0.002 | [2] 0.003 | [3] 0.024 | [4] -0.093 | [5] -0.021 | [6] 0.05 | [7] -0.021 | [8] -0.029 | [9] -0.022 | [10] 0.008

ALG2 (UniProt Q9H553)
inactive: [1] 0.05 | [2] 0.01 | [3] 0.071 | [4] -0.01 | [5] 0.027 | [6] 0.016 | [7] -0.047 | [8] 0.011 | [9] -0.019 | [10] 0.011

Remaining list, next part:

ALDH1L2 (UniProt Q3SY69)
inactive: [1] 0.072 | [2] -0.047 | [3] 0.092 | [4] 0.04 | [5] 0.072 | [6] -0.06 | [7] 0.023 | [8] 0.059 | [9] 0.085 | [10] -0.041

ADSS2 (UniProt P30520)
inactive: [1] 0.051 | [2] 0.073 | [3] 0.044 | [4] -0.02 | [5] 0.025 | [6] 0 | [7] -0.028 | [8] 0.009 | [9] -0.003 | [10] 0.055

AIFM1 (UniProt O95831)
inactive: [1] -0.003 | [2] 0.069 | [3] 0.002 | [4] -0.056 | [5] 0.026 | [6] -0.036 | [7] -0.009 | [8] -0.039 | [9] -0.019 | [10] 0.026

ALKBH3 (UniProt Q96Q83)
inactive: [1] 0.015 | [2] 0.009 | [3] -0.053 | [4] -0.014 | [5] 0.008 | [6] 0.023 | [7] -0.033 | [8] 0.012 | [9] -0.054 | [10] 0.014

ADO (UniProt Q96SZ5)
inactive: [1] 0.006 | [2] 0.025 | [3] 0.095 | [4] -0.002 | [5] 0.024 | [6] 0.008 | [7] -0.021 | [8] -0.037 | [9] 0.009 | [10] 0.03

AHCTF1 isoform 2 (UniProt Q8WYP5)
inactive: [1] 0.017 | [2] 0 | [3] 0.186 | [4] 0.287 | [5] 0.025 | [6] 0.187 | [7] -0.111 | [8] -0.05 | [9] -0.051 | [10] -0.078
